Our source for the IC50 and Ki values is ChEMBL document CHEMBL1909046, “DrugMatrix in vitro pharmacology data”.

The chains behind the UniProt entries cited, without tags or fusion partners. Where a name states a change or a piece, a line headed by the entry shows the natural chain unless it says otherwise.
UniProt P11712, whole entry: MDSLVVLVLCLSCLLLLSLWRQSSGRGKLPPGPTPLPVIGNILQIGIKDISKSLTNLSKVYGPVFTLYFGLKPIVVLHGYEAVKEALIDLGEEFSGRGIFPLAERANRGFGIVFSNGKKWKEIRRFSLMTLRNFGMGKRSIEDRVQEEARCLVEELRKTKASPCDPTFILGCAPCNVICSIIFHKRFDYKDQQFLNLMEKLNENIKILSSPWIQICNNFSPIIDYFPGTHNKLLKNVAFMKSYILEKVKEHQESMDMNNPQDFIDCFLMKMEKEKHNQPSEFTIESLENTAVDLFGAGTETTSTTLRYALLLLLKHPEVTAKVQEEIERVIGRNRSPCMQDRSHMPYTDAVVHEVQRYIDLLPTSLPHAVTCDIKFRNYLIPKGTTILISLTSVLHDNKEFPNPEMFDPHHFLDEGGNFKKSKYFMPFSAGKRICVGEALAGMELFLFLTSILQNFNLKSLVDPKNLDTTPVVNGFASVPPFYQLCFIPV
UniProt P28564, whole entry: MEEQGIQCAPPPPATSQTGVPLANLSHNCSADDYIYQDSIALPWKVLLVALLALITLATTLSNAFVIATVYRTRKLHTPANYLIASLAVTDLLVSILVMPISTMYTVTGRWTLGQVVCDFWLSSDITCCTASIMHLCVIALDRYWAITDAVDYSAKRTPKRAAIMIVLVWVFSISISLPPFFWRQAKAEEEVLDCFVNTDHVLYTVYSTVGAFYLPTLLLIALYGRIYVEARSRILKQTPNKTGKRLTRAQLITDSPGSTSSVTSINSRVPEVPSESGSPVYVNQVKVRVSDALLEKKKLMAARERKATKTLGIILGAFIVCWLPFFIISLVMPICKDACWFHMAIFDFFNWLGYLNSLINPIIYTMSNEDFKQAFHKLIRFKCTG
UniProt P22771: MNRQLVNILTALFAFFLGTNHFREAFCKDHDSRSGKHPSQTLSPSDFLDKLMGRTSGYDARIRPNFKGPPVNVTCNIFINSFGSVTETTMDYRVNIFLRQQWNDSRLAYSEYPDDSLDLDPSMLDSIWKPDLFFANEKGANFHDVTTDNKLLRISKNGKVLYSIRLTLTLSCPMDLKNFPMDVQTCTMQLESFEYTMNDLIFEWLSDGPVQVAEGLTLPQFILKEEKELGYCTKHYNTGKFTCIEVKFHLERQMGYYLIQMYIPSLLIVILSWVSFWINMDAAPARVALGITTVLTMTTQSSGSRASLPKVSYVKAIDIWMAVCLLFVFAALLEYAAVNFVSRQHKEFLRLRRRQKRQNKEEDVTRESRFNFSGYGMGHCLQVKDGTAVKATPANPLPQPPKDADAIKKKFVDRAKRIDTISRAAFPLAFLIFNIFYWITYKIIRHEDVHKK
UniProt P24524: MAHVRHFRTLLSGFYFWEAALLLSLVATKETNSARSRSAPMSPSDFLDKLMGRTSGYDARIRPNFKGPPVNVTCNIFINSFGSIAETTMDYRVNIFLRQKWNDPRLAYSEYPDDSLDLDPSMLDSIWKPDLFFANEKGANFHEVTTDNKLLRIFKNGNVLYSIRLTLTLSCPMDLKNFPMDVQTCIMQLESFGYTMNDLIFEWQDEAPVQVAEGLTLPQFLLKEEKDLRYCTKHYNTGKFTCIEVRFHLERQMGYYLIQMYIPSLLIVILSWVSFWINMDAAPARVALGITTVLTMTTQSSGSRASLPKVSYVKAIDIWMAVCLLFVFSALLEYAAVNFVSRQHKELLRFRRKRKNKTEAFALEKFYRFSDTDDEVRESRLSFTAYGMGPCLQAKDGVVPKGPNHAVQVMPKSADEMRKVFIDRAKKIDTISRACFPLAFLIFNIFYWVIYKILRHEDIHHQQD
UniProt P07727: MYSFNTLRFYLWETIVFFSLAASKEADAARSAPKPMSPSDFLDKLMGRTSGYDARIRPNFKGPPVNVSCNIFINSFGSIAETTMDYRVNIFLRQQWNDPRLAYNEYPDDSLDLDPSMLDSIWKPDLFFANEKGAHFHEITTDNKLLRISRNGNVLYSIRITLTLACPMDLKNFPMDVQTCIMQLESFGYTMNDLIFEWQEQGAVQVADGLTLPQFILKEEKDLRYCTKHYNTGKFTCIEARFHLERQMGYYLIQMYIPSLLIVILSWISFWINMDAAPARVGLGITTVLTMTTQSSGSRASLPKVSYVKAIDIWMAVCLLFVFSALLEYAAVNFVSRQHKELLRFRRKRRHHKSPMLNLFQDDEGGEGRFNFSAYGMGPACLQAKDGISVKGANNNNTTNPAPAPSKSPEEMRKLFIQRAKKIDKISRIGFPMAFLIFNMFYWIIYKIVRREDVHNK
UniProt P20781: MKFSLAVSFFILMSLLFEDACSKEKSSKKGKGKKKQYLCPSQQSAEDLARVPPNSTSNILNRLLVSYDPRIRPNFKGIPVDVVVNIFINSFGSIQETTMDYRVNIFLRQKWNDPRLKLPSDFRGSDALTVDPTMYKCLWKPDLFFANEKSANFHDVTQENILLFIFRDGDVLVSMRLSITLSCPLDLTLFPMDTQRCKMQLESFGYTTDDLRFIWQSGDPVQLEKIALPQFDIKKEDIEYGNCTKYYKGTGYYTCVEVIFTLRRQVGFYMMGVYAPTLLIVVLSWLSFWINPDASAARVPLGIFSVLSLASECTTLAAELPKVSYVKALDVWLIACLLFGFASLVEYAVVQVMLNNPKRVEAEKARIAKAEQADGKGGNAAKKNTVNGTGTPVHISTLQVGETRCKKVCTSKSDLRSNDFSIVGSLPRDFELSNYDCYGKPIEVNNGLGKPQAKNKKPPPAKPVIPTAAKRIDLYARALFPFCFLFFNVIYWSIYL
UniProt P06239: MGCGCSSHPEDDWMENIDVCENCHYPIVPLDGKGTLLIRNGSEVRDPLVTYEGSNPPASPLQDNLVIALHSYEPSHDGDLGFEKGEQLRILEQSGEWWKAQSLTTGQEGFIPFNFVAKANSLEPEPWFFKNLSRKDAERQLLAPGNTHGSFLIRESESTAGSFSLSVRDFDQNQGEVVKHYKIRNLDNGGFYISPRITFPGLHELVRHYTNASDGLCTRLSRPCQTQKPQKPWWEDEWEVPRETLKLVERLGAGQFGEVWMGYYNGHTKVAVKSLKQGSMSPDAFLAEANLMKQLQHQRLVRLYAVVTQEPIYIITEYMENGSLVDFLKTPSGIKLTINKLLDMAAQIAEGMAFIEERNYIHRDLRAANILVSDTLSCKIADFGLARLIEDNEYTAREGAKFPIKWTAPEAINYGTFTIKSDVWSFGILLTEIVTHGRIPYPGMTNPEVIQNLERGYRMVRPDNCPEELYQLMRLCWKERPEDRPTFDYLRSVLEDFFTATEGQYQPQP

The term IC50 denotes the point on the concentration scale where inhibition reaches its midpoint. Broadly, the Ki is the equilibrium dissociation constant of an inhibitor or competing ligand from its target. A higher Ki goes with a looser hold on the target.

For data set [1], the target named is Cytochrome P450 2C9 (Homo sapiens, UniProt P11712). The note with it: bti-tn-5b1-4. Further: in other assays of this panel Not Active means under 50% inhibition at 10 µM.
The target of data set [2] is T1, Nitric oxide synthase, inducible (Mus musculus, UniProt P29477).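 Further: inhibition of iNOS enzyme activity measured with L-arginine as substrate; in other assays of this panel Not Active means under 50% inhibition at 10 µM.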
T1 sequence (P29477 whole entry): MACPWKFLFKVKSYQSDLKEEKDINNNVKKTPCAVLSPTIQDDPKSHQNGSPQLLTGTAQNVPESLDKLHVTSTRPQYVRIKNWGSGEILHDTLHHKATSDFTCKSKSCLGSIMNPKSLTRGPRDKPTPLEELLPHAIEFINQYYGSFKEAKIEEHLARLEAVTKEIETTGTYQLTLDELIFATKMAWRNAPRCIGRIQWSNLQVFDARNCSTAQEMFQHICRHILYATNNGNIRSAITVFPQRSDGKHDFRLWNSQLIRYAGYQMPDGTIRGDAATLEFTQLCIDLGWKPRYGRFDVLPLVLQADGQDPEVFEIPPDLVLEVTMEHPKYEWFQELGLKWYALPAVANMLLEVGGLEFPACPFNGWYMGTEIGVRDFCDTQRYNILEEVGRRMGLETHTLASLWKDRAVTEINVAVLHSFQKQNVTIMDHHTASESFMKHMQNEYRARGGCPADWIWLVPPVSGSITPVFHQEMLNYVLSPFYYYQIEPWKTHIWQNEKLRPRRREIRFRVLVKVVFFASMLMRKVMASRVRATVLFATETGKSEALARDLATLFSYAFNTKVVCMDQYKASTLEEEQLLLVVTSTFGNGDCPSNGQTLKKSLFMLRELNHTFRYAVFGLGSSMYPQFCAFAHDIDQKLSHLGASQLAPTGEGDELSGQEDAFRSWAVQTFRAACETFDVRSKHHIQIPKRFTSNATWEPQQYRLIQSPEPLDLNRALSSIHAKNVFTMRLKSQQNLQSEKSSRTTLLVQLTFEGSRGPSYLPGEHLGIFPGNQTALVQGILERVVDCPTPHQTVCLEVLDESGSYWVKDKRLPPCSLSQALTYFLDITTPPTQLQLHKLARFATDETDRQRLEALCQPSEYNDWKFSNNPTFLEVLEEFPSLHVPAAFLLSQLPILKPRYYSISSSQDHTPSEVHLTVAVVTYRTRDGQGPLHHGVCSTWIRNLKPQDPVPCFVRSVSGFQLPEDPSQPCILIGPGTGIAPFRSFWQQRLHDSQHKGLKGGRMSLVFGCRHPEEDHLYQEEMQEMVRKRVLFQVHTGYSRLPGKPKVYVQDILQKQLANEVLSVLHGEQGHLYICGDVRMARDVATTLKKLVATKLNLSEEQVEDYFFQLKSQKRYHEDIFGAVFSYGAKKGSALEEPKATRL
The arrangement: species or system Escherichia coli.

The target of data set [3] is 5-hydroxytryptamine receptor 1B (Rattus norvegicus, UniProt P28564). In kind it is cell membranes, Wistar, Cerebral cortex, Membrane. Further: in other assays of this panel Not Active means under 50% inhibition at 10 µM.
Data set [4] concerns the target Glycine receptor (Rattus norvegicus, UniProt P22771+P24524+P07727+P20781). In kind it is cell membranes, Wistar, Spinal cord, Membrane. Further: in other assays of this panel Not Active means under 50% inhibition at 10 µM.
Data set [5] concerns the target T2, Polyunsaturated fatty acid lipoxygenase ALOX15 (Oryctolagus cuniculus, UniProt P12530).
T2 sequence (P12530 whole entry): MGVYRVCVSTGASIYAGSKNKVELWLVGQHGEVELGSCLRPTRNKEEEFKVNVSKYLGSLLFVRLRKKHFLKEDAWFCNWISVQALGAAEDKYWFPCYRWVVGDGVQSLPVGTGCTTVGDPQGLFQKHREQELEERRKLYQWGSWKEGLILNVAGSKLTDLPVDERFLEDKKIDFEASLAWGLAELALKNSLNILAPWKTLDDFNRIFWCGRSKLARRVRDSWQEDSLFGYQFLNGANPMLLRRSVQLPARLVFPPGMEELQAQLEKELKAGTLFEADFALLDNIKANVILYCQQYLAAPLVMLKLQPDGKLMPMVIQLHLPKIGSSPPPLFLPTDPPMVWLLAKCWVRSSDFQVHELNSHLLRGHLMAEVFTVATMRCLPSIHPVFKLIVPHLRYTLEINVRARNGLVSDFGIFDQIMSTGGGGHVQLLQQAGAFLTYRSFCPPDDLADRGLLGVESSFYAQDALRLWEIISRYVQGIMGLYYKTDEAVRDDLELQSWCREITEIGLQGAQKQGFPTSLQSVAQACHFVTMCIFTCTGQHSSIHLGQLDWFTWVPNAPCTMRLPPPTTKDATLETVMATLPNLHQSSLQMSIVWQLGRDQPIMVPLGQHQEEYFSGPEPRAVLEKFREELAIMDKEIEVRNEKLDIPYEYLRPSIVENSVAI
The class given is tissue-based. The conditions noted are these: reticulocytes.

Data set [6] has as its target Tyrosine-protein kinase Lck (Homo sapiens, UniProt P06239). The data set is described as follows: DRUGMATRIX: Protein Tyrosine Kinase, LCK enzyme inhibition (substrate: Poly(Glu:Tyr)). In kind it is cell-based. The note with it: insect cells; Not Active = under 50% inhibition at 10 µM.

For the compound `CN1CCC[C@@H]1CCO[C@](C)(c1ccccc1)c1ccc(Cl)cc1` [CLEMASTINE], the IC50 entry in data set [1] was “Not Active”; in data set [2] it was “Not Active”; in data set [3] (read-out: IC50), 359 nM; in data set [4], “Not Active”; in data set [5], “Not Active”; in data set [6], “Not Active”. For the same compound, the Ki result is “Not Active” in data set [1] and 220 nM in data set [3].

With `Br.CN1[C@@H]2CC[C@H]1C[C@@H](OC(=O)C(O)c1ccccc1)C2` (some centres not stated) [HOMATROPINE HYDROBROMIDE], the IC50 result in data set [1], in data set [2], in data set [3], in data set [4], in data set [5] and in data set [6] was “Not Active” throughout. For the same compound, in data set [1], the Ki result was “Not Active”.

Take `Cc1ccccc1C(OCCN(C)C)c1ccccc1` (configuration not stated) [ORPHENADRINE]: the IC50 entry in data set [1], in data set [2], in data set [3], in data set [4], in data set [5] and in data set [6] was “Not Active” throughout. The Ki entry in data set [1] was “Not Active”.
